For two molecules, binding results are on record in article PMC10017463.

The chains behind the UniProt entries cited, without tags or fusion partners.
UniProt Q14247: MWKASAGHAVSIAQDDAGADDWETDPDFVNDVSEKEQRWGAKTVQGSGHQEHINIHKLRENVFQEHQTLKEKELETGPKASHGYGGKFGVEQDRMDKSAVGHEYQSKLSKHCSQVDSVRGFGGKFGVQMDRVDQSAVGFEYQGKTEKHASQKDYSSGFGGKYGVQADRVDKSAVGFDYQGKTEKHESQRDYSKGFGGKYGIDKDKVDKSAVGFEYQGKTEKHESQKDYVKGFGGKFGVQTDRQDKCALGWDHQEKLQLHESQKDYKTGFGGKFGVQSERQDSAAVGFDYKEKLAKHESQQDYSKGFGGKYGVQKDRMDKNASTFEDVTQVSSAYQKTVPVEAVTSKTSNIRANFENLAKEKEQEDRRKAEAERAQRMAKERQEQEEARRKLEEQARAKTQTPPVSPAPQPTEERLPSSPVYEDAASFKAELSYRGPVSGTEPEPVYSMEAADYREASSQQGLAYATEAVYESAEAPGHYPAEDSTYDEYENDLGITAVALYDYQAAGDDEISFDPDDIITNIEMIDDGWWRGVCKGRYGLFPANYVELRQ

In assay [1] the target is T1, VE-cadherin (human (endogenous in HUVEC)) (UniProt P33151).
T1 sequence: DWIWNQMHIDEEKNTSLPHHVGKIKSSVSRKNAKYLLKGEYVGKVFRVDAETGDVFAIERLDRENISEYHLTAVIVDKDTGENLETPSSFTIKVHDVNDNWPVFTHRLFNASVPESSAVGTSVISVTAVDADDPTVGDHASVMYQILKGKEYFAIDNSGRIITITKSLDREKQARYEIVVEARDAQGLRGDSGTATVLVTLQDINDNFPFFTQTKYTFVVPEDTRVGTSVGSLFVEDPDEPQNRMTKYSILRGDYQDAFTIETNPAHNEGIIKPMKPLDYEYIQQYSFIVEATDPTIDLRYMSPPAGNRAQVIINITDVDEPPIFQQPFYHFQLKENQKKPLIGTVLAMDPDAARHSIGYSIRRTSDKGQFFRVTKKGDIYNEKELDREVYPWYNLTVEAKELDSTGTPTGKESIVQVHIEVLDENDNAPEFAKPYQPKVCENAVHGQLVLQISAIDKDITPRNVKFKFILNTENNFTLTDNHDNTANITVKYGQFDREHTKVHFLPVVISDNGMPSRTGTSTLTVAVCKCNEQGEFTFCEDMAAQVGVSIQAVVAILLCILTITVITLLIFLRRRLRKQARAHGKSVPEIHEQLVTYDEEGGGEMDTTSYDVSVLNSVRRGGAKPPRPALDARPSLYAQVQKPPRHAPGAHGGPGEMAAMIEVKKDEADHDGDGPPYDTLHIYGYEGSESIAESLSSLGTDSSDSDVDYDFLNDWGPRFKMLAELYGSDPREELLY
Kind of assay: co-IP; VE-cadherin precipitated from HUVEC cell lysates (shScramble, shPRKD1 stable knockdown lines, or cells treated with the PRKD inhibitor CRT0066101, 5 µM); coprecipitated partners detected by Western blot. On the technique in general: Immunoblotting shows a protein as a band on a membrane.

The target in assay [2] is T2, VE-cadherin (human (endogenous in HUVEC)), P33151.
T2 chain: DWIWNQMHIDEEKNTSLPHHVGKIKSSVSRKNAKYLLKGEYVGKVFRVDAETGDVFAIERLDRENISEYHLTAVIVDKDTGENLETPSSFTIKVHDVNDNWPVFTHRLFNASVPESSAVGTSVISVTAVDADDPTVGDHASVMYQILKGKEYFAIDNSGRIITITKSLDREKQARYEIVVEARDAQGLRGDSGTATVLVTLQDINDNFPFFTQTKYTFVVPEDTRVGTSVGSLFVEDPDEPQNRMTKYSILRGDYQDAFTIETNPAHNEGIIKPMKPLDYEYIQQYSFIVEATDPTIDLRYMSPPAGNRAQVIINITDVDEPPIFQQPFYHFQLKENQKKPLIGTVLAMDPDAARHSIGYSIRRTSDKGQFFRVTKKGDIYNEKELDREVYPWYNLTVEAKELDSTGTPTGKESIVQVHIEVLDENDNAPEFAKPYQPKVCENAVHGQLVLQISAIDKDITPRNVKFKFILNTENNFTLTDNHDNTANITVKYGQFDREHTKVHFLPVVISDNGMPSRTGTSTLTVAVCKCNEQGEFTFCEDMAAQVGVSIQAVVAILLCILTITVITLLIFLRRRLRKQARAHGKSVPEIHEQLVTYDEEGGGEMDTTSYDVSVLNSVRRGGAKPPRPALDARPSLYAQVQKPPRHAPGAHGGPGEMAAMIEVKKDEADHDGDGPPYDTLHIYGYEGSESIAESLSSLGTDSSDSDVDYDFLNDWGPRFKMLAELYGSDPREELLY
Described as above. Particulars: remark: other sources report otherwise.

These are yes or no findings as the source states them, for the method shown. Binding seen in cells or lysates may run through a third protein. Some entries that bind do so weakly or less than the wild type.

For the molecule Cortactin (from UniProt Q14247 1-550), the binding result in assay [1] was “binds”.

B1: β-catenin, P35222 1-781 (protein)
chain: MATQADLMELDMAMEPDRKAAVSHWQQQSYLDSGIHSGATTTAPSLSGKGNPEEEDVDTSQVLYEWEQGFSQSFTQEQVADIDGQYAMTRAQRVRAAMFPETLDEGMQIPSTQFDAAHPTNVQRLAEPSQMLKHAVVNLINYQDDAELATRAIPELTKLLNDEDQVVVNKAAVMVHQLSKKEASRHAIMRSPQMVSAIVRTMQNTNDVETARCTAGTLHNLSHHREGLLAIFKSGGIPALVKMLGSPVDSVLFYAITTLHNLLLHQEGAKMAVRLAGGLQKMVALLNKTNVKFLAITTDCLQILAYGNQESKLIILASGGPQALVNIMRTYTYEKLLWTTSRVLKVLSVCSSNKPAIVEAGGMQALGLHLTDPSQRLVQNCLWTLRNLSDAATKQEGMEGLLGTLVQLLGSDDINVVTCAAGILSNLTCNNYKNKMMVCQVGGIEALVRTVLRAGDREDITEPAICALRHLTSRHQEAEMAQNAVRLHYGLPVVVKLLHPPSHWPLIKATVGLIRNLALCPANHAPLREQGAIPRLVQLLVRAHQDTQRRTSMGGTQQQFVEGVRMEEIVEGCTGALHILARDVHNRIVIRGLNTIPLFVQLLYSPIENIQRVAAGVLCELAQDKEAAEAIEAEGATAPLTELLHSRNEGVATYAAAVLFRMSEDKPQDYKKRLSVELTSSLFRTEPMAWNETADLGLDIGAQGEPLGYRQDDPSYRSFHSGGYGQDALGMDPMMEHEMGGHHPGADYPVDGLPDLGHAQDLMDGLPPGDSNQLAWFDTDL
As for B1, the binding entry in assay [2] was “binds”.
